Laboratory results: US10357577B2, “Bacterial nitroreductase enzymes and methods relating thereto” (AUCKLAND UNISERVICES LIMITED, priority 2010, dated 2019)
Some results were stated once for a whole list of compounds, not compound by compound.

Each compound was assayed on nitroreductase NfsA-expressing HCT116 'activator' cells (assay: MCL (multicellular layer) bystander experiment, NfsA-dependent activation). Settings: inventors' summary, FIGS. 6 and 30.
Format: cell-based, human
Experimental: Displacement of the Target cell survival curve to the left (T to Tc) is indicative of the presence of a cytotoxic metabolite(s) able to diffusible out of the sensitive activator (A) cell population. The prodrug concentrations for 10% survival (C10) of target cells (wild-type cells) grown without activators (T), targets in co-culture (TC) and activators (nfsA-expressing cells) in co-culture (AC) were determined by interpolation. BEE-Bystander effect efficiency calculates the drugs bystander effect: ((Log C10T−Log C10TC)/(Log C10T−Log C10AC)).
The prodrug concentrations for 10% survival (C10) of target cells (wild-type cells) grown without activators (T), and targets in co-culture (TC) and activators (NTR-expressing cells) in co-culture (AC) can be determined. The bystander effect of a test prodrug is measured by the bystander effect efficiency which can be calculated using the algorithm ((Log C10T−Log C10TC)/(Log C10T−Log C10AC)).
Millicell-CM membrane inserts (Millipore) were coated in calf-skin collagen type III (Sigma-Aldrich) to facilitate cell attachment. […] After exposure, inserts were disaggregated (0.07% trypsin, 10 min, 37° C., followed by 100 μg/ml DNAase I (Sigma-Aldrich). Cells were counted, resuspended and plated in P60 dishes to determine clonogenic survival. To discriminate clonogenic activator (NTR+) from target (NTR−) colonies cells were plated in non-selective medium (total cells) and medium containing 1 μM puromycin (activator cells). Colonies were grown in a 37° C. 5% CO2 incubator for 10 days before staining with methylene blue (2 g/liter in 50% v/v aqueous ethanol). Colonies containing >50 cells were counted as clonogenic survivors. Surviving fractions for each population was calculated as the plating efficiency for drug-treated MCLs/untreated controls. The drug concentrations for 10% survival (C10) of target cells grown without activators (T), targets in co-culture (Tc) and activators in co-culture (Ac) was determined by interpolation.

Row | Compound | bystander effect class of activated prodrug
1 | O=C(Cn1ccnc1[N+](=O)[O-])NCC(F)(F)F [EF3, 2-(2-nitro-1H-imidazol-1-yl)-N-(2,2,2-trifluoroethyl)acetamide] | substantially minimal (A BEE value of less than about 15%, less than about 10%, less than about 5%, less than about 1% or zero is considered “substantially minimal”)
2 | O=C(Cn1ccnc1[N+](=O)[O-])NCC(F)(F)C(F)(F)F [EF5, 2-(2-nitro-1H-imidazol-1-yl)-N-(2,2,3,3,3-pentafluoropropyl)acetamide] | substantially minimal (A BEE value of less than about 15%, less than about 10%, less than about 5%, less than about 1% or zero is considered “substantially minimal”)
3 | O=C(Cn1ccnc1[N+](=O)[O-])NCCO [Etanidazole, N-(2-hydroxyethyl)-2-(2-nitro-1H-imidazol-1-yl)acetamide] | substantially minimal (A BEE value of less than about 15%, less than about 10%, less than about 5%, less than about 1% or zero is considered “substantially minimal”)
4 | O=C1OCCN1/N=C/c1ccc([N+](=O)[O-])o1 [Furazolidinone, (E)-3-(((5-nitrofuran-2-yl)methylene)amino)oxazolidin-2-one] | substantially minimal (A BEE value of less than about 15%, less than about 10%, less than about 5%, less than about 1% or zero is considered “substantially minimal”)
5 | Cc1ncc([N+](=O)[O-])n1CCO [Metronidazole, 2-(2-methyl-5-nitro-1H-imidazol-1-yl)ethanol] | substantially minimal (A BEE value of less than about 15%, less than about 10%, less than about 5%, less than about 1% or zero is considered “substantially minimal”)
6 | O=[N+]([O-])c1nccn1CCCNc1ccnc2cc(Cl)ccc12 [NLCQ-1, 7-chloro-N-(3-(2-nitro-1H-imidazol-1-yl)propyl)quinolin-4-amine] | substantially minimal (A BEE value of less than about 15%, less than about 10%, less than about 5%, less than about 1% or zero is considered “substantially minimal”)
7 | CSCC1CN(/N=C/c2ccc([N+](=O)[O-])o2)C(=O)O1 (stereo not shown) [Nifuratel, (E)-5-((methylthio)methyl)-3-(((5-nitrofuran-2-yl)methylene)amino)oxazolidin-2-one] | substantially minimal (A BEE value of less than about 15%, less than about 10%, less than about 5%, less than about 1% or zero is considered “substantially minimal”)
8 | NC(=O)N/N=C/c1ccc([N+](=O)[O-])o1 [Nitrofurazone, (E)-2-((5-nitrofuran-2-yl)methylene)hydrazinecarboxamide] | substantially minimal (A BEE value of less than about 15%, less than about 10%, less than about 5%, less than about 1% or zero is considered “substantially minimal”)
9 | Cc1ncc([N+](=O)[O-])n1CC(O)CCl (stereo not shown) [Ornidazole, 1-chloro-3-(2-methyl-5-nitro-1H-imidazol-1-yl)propan-2-ol] | substantially minimal (A BEE value of less than about 15%, less than about 10%, less than about 5%, less than about 1% or zero is considered “substantially minimal”)
10 | CCS(=O)(=O)CCn1c([N+](=O)[O-])cnc1C [Tinidazole, 1-(2-(ethylsulfonyl)ethyl)-2-methyl-5-nitro-1H-imidazole] | substantially minimal (A BEE value of less than about 15%, less than about 10%, less than about 5%, less than about 1% or zero is considered “substantially minimal”)
